# PubChem BioAssay AID2685 (National Center for Advancing Translational Sciences (NCATS), 2010)
# Among all 320,000 compounds or so, about 2,100 (0.66%) were called active. This list was built around the results that the source calls inconclusive (neither active nor inactive); the mix of calls is not that of the screen. Calls follow the shape of the dose curve; as a rule, active = well fitted inhibition curve with a large enough effect in the signal ratio, with a control signal flat (not every such curve was filed as active); inconclusive = small, poorly fitted or top-dose-only effect, or effect the other way, or a change in a side signal; inactive = flat fitted curve, though single readings scatter; the % refers to the signal ratio. Where the call is inconclusive, the potency comes from a doubtful curve fit.
# Assay: qHTS Assay for Lipid Storage Modulators in Drosophila S3 Cells
# Details: BODIPY lipid droplet fluorescence, 18-24 h, cells fed with added oleic acid; lipid storage change, negative = inhibition: at 46.1 µM (top of the series) unless noted
# Outline: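 Drosophila S3 cells got compounds at several concentrations plus oleic acid (400 uM solution). Laser-scanning cytometry with 488 nm excitation read lipid droplets at 500-530 nm and cells at 575-640 nm. Percent activity was relative to 20 uM Triacsin C.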
# % is scaled to controls: 0 for no effect and ±100 for the full control effect; potency is read from the fitted curve at half-maximal effect.
Structure (SMILES),"lipid storage change, negative = inhibition",Potency
COc1ccc(/C=N/NC(C)(C)C)c(OC)c1,inconclusive: 11.2%,
CCOc1ncccc1C(=O)N1CCN(c2cc(Cl)ccc2C)CC1,inconclusive: 27.5%,
CCOC(=O)c1ccccc1NC(=O)COC(=O)CSc1ccccc1,inconclusive: -8.77%,
O=C(NCCOc1cccc(Cl)c1Cl)c1cc(-n2cnnc2)ccc1Cl,inconclusive: 36.7%,
COc1ccc(CC(=O)NNC(=O)COc2ccc(Br)cc2C)cc1OC,inactive,
CSc1cccc(NC(=O)CCS(=O)(=O)c2cccc3nonc23)c1,inconclusive: -8.99%,
O=C(CCCCCNc1nc(=S)[nH]c2ccccc12)NCCc1c[nH]c2ccccc12,,"inconclusive: 20.6 µM [falling, single point]"
COc1ccc(OC)c(C(=O)c2ccccn2)c1,inconclusive: 6.52%,
O=C(OCc1ccc(Cl)c(Cl)c1)c1ccc[nH]1,inactive,
CC(C)NC(=O)CC1OC(=O)c2ccccc21 (stereo not given),,"inconclusive: 23.1 µM [cytotoxic, partial curve]"
Cc1ccc(-n2nc(C)c(C(=O)O)c2-n2cccc2)cc1,inconclusive: -11.6%,
CC(C)(C)c1cc(-c2nc(N)nc(N)n2)cc(C(C)(C)C)c1,,"inconclusive: 29.1 µM [falling, single point]"
CCCCCCNc1c(C(=O)OCC)c(=O)[nH]c2ccccc12,inconclusive: 8.76%,
C(=N\N1CCN(Cc2ccccc2)CC1)/c1ccc(-c2ccccc2)cc1,inconclusive: 4.53%,
CCCCOc1ncnc2c1[nH]c1ccc(C)cc12,inconclusive: -27.4%,
Cc1ccc(NS(=O)(=O)c2ccc(C(=O)N3CC(C)OC(C)C3)cc2)cc1 (stereo not given),,"inconclusive: 0.58 µM [falling, single point]"
FC(F)(F)c1ccc(/C=N/N2CCN(Cc3ccccc3)CC2)cc1,inconclusive: -37.5%,
NC(=S)Nc1cccc(-c2n[nH]c(=S)o2)c1,,"inconclusive: 4.11 µM [activator, single point]"
Cc1ccc(C(=O)Cn2c(=N)n(N)c3ccccc32)cc1,inconclusive: 66.7%,
COC(=O)C1=C(C)NC(c2c(O)ccc3ccccc23)C(C(=O)OC)=C1C (stereo not given),,"inconclusive: 14.6 µM [activator, partial curve]"
COc1ccc(C)cc1N(CC(=O)N/N=C/c1ccccc1C(=O)O)S(=O)(=O)c1ccccc1,inconclusive: 4.6%,
CC1=CC(C)(C)N2C(=O)C3(NCCc4c3[nH]c3ccccc43)c3cc(C)cc1c32 (stereo not given),,"inconclusive: 4.11 µM [falling, full curve, poor fit]"
Cc1cc(-c2ccc([N+](=O)[O-])cc2)nc2ccccc12,inconclusive: 7.32%,
c1ccc(-c2nc(-c3ccncc3)no2)cc1,inconclusive: 2.58%,
NS(=O)(=O)c1ccc(N=Cc2ccc(Br)s2)cc1,inconclusive: 15.6%,

Structure (SMILES),"lipid storage change, negative = inhibition",Potency
CCOC(=O)c1sc2nc(CC(=O)OC)nc(NCCN(CC)CC)c2c1C,inconclusive: -87.6%,
O=C(COC(=O)Cc1c[nH]c2ccccc12)NC1CCCCC1,,"inconclusive: 29.1 µM [rising, single point]"
C=CCN(c1ccccc1)S(=O)(=O)c1cccc(C(=O)NCC(c2cccs2)N2CCOCC2)c1 (stereo not given),inconclusive: -40%,
COc1ccc(C2(CNC(=O)/C=C/c3ccco3)CCCC2)cc1OC,,"inconclusive: 0.651 µM [falling, full curve, poor fit]"
COc1cccc(CNC(=O)c2cccc(S(=O)(=O)N3CCN(C)CC3)c2)c1,inconclusive: 10.4%,
Cc1nc(CSc2nnc(C)s2)cs1,inconclusive: -0.556%,
CC(C)[C@H](NC(=O)Nc1cccc(C(F)(F)F)c1)C(=O)O,inconclusive: -4.71%,
CCN(CC)C(=O)c1ccc(NS(=O)(=O)c2ccc3[nH]c(=O)[nH]c3c2)cc1,,"inconclusive: 29.1 µM [falling, single point]"
O=C(Nc1ccc(S(=O)(=O)Nc2ncccn2)cc1)C1CC(=O)N(c2ccc(Cl)cc2)C1 (stereo not given),inconclusive: -30.8%,
COc1cccc(-n2c(SCC(=O)Nc3cc(C)on3)nc3ccccc3c2=O)c1,inconclusive: 37.7%,
O=S(=O)(c1ccccc1)N1CCN(c2ccccc2)CC1,inconclusive: 73.5%,
O=C(O)c1ccc(Cl)c(S(=O)(=O)NC(Cc2ccccc2)C(=O)O)c1 (stereo not given),inconclusive: 0.477%,
CC(C)c1nnc(NC(=O)CCCCCN2C(=O)C3C4C=CC(C4)C3C2=O)s1 (stereo not given),inconclusive: 4.77%,
Cc1ccc(N2C(=O)C3C4C=CC(C4)C3C2=O)cc1 (stereo not given),inconclusive: 92%,
CCN1C(=O)/C(=C2\SC(=S)N(CCCOC)C2=O)c2ccccc21,,"inconclusive: 20.6 µM [activator, single point]"
CCc1nnc(NC(=O)c2ccc3c(c2)C(=O)N(C(C)(C)C)C3=O)s1,inconclusive: -2.04%,
CCC(=O)Nc1nn(CC(C)C)c2nc3ccc(C)cc3cc12,inconclusive: 9.06%,
O=C(CN1CCCCCC1)N/N=C/c1ccc(Cl)c(Cl)c1,inconclusive: 5.69%,
Cc1c(C(=O)NCc2ccco2)oc2c(Cl)cccc12,,"inconclusive: 0.651 µM [activator, single point]"
O=C(CNCc1ccco1)Nc1cc(S(=O)(=O)N2CCOCC2)ccc1N1CCCC1,inconclusive: -12.2%,
O=C(Nn1cnnc1)c1ccccc1CCc1ccccc1,inconclusive: 5.67%,
Nc1nc(SCC(=O)NC2CCCC2)[nH]c(=O)c1-c1ccccc1,,"inconclusive: 16.4 µM [falling, single point]"
COc1ccc(/C=C/C(=O)O)cc1S(=O)(=O)N1CCCc2ccccc21,,"inconclusive: 3.26 µM [falling, full curve, poor fit]"
COc1cc(OC)c2c(-c3ccccc3)cc(=O)oc2c1C(CC(=O)N1CCN(c2ccccc2)CC1)c1ccc2c(c1)OCO2 (stereo not given),inconclusive: 19.1%,
CCCCn1c(N)c(N(CCC(C)C)C(=O)C2CC(=O)N(c3ccc(OC)cc3OC)C2)c(=O)[nH]c1=O (stereo not given),inconclusive,

# Whole records, quoted from the list.
# COc1cccc(CNC(=O)c2cccc(S(=O)(=O)N3CCN(C)CC3)c2)c1 as listed: lipid storage change, negative = inhibition: inconclusive: 10.4%
# CCc1nnc(NC(=O)c2ccc3c(c2)C(=O)N(C(C)(C)C)C3=O)s1 as listed: lipid storage change, negative = inhibition: inconclusive: -2.04%
